Results as given in PubChem BioAssay AID248 (DTP/NCI, 2004).
The list is a part of this screen's results and no random one: it is rich in T/C values a quarter to a half above the control, in often repeated tests (any T/C) and in doses without a T/C. Other doses and runs of a compound stand elsewhere. T/C: endpoint of the treated group in % of that of the vehicle group. Some entries give survivors of the animals treated and no T/C: the source files T/C as zero there, which appears to mark a toxic dose or a test without result, not a measured value. Some survivor counts are full or nearly so, which does not show that the dose was tolerated: survival well below the control is almost never listed, so the zero probably covers shortened survival too. Survivors were counted at the toxicity check, usually on the fifth day, unless a day is given; later deaths do not show. Schedules are NCI's codes, read here as Q, the interval in days (D) or hours (H), X, the number of doses. Some doses were run more than once; the results are listed from low to high. Where survival is the endpoint, this PubChem deposit counts one and a half times the control or more as active, and values a quarter to a half above the control carry no call in these data; other NCI protocols may use other cut-offs. Some T/C values carry the count of animals alive at the toxicity check (mostly the fifth day); without a count, all were alive then.

System: L1210 leukemia ip in BDF1 mice, survival T/C
Experiment: NCI In Vivo Anticancer Drug Screen. Data for tumor model L1210 Leukemia (intraperitoneal) in B6D2F1 (BDF1) mice
Details: higher T/C = longer survival

Cc1c2oc3c(C)ccc(C(=O)N[C@@H]4C(=O)N[C@H](C(C)C)C(=O)N5CCC[C@H]5C(=O)N(C)CC(=O)N(C)[C@@H](C(C)C)C(=O)O[C@H]4C)c3nc-2c(C(=O)N[C@@H]2C(=O)N[C@H](C(C)C)C(=O)N3CCC[C@H]3C(=O)N(C)CC(=O)N(C)[C@@H](C(C)C)C(=O)O[C@H]2C)c(N)c1=O
survivor count (T/C endpoint: mean survival time, dose: 512.0 micrograms/kg/injection, schedule: Q01DX001 (ip), vehicle: saline): 3 of 10
survivor count (T/C endpoint: mean survival time, dose: 600.0 micrograms/kg/injection, schedule: Q04DX003 (ip), vehicle: saline + alcohol): 7 of 8
T/C (T/C endpoint: mean survival time, dose: 600.0 micrograms/kg/injection, schedule: Q04DX003 (ip), vehicle: saline): 146 % of control
T/C (T/C endpoint: median survival time, dose: 0.04 mg/kg/injection, schedule: Q01DX009 (ip), vehicle: water): 128 % of control
T/C (T/C endpoint: median survival time, dose: 0.05 mg/kg/injection, schedule: Q01DX009 (ip), vehicle: water, evaluated on day 5): 147 % of control
T/C (T/C endpoint: median survival time, dose: 0.05 mg/kg/injection, schedule: Q01DX009 (ip), vehicle: water, evaluated on day 19): 147 % of control
T/C (T/C endpoint: median survival time, dose: 0.06 mg/kg/injection, schedule: Q01DX009 (ip), vehicle: water, evaluated on day 5): 127 % of control
T/C (T/C endpoint: median survival time, dose: 0.06 mg/kg/injection, schedule: Q01DX009 (ip), vehicle: water, evaluated on day 19): 127 % of control
T/C (T/C endpoint: median survival time, dose: 0.07 mg/kg/injection, schedule: Q01DX009 (ip), vehicle: water, evaluated on day 5): 146 % of control
T/C (T/C endpoint: median survival time, dose: 0.07 mg/kg/injection, schedule: Q01DX009 (ip), vehicle: water, evaluated on day 19): 146 % of control
T/C (T/C endpoint: median survival time, dose: 0.1 mg/kg/injection, schedule: Q01DX002 (ip), vehicle: saline, evaluated on day 5): 130 % of control
T/C (T/C endpoint: median survival time, dose: 0.1 mg/kg/injection, schedule: Q01DX002 (ip), vehicle: saline, evaluated on day 20): 130 % of control
T/C (T/C endpoint: median survival time, dose: 0.12 mg/kg/injection, schedule: Q04DX003 (ip), vehicle: saline): 136 % of control
T/C (T/C endpoint: median survival time, dose: 0.12 mg/kg/injection, schedule: Q04DX003 (ip), vehicle: water): 128 % of control
T/C (T/C endpoint: median survival time, dose: 0.13 mg/kg/injection, schedule: Q04DX003 (ip), vehicle: saline): 136 % of control
T/C (T/C endpoint: median survival time, dose: 0.13 mg/kg/injection, schedule: Q04DX003 (ip), vehicle: water): 128 % of control
T/C (T/C endpoint: median survival time, dose: 0.2 mg/kg/injection, schedule: Q01DX002 (ip), vehicle: saline, evaluated on day 5): 131 % of control
T/C (T/C endpoint: median survival time, dose: 0.2 mg/kg/injection, schedule: Q01DX002 (ip), vehicle: saline, evaluated on day 20): 131 % of control
T/C (T/C endpoint: median survival time, dose: 0.25 mg/kg/injection, schedule: Q04DX003 (ip), vehicle: water, evaluated on day 5): 132 % of control
T/C (T/C endpoint: median survival time, dose: 0.25 mg/kg/injection, schedule: Q04DX003 (ip), vehicle: water, evaluated on day 30): 132 % of control
T/C (T/C endpoint: median survival time, dose: 0.25 mg/kg/injection, schedule: Q04DX003 (ip), vehicle: water, evaluated on day 60): 127 % of control
T/C (T/C endpoint: median survival time, dose: 0.25 mg/kg/injection, schedule: Q08DX002 (ip), vehicle: water): 133 % of control
survivor count (T/C endpoint: median survival time, dose: 0.4 mg/kg/injection, schedule: Q01DX002 (ip), vehicle: saline): 8 of 8
T/C (T/C endpoint: median survival time, dose: 0.5 mg/kg/injection, schedule: Q01DX001 (ip), vehicle: water): 127 % of control [9 of 10 alive]
T/C (T/C endpoint: median survival time, dose: 0.5 mg/kg/injection, schedule: Q08DX002 (ip), vehicle: water): 138 % of control [9 of 10 alive]
survivor count (T/C endpoint: median survival time, dose: 1.0 mg/kg/injection, schedule: Q01DX001 (ip), vehicle: water): 1 of 10
survivor count (T/C endpoint: median survival time, dose: 1.0 mg/kg/injection, schedule: Q04DX003 (ip), vehicle: saline): 1 of 8
survivor count (T/C endpoint: median survival time, dose: 1.0 mg/kg/injection, schedule: Q04DX003 (ip), vehicle: water): 3 of 8 and 4 of 10
survivor count (T/C endpoint: median survival time, dose: 1.0 mg/kg/injection, schedule: Q08DX002 (ip), vehicle: water): 3 of 10
T/C (T/C endpoint: median survival time, dose: 25.0 micrograms/kg/injection, schedule: Q01DX009 (ip), vehicle: saline): 130 and 137 % of control
T/C (T/C endpoint: median survival time, dose: 25.0 micrograms/kg/injection, schedule: Q01DX009 (ip), vehicle: water): 126 % of control
T/C (T/C endpoint: median survival time, dose: 50.0 micrograms/kg/injection, schedule: Q01DX009 (ip), vehicle: saline): 135 and 137 % of control
T/C (T/C endpoint: median survival time, dose: 50.0 micrograms/kg/injection, schedule: Q01DX009 (ip), vehicle: water): 146 % of control
survivor count (T/C endpoint: median survival time, dose: 62.0 micrograms/kg/injection, schedule: Q03HX016 (ip), vehicle: water): 6 of 10
survivor count (T/C endpoint: median survival time, dose: 100.0 micrograms/kg/injection, schedule: Q01DX009 (ip), vehicle: saline): 6 of 6
T/C (T/C endpoint: median survival time, dose: 100.0 micrograms/kg/injection, schedule: Q01DX009 (ip), vehicle: water): 131 % of control
survivor count (T/C endpoint: median survival time, dose: 125.0 micrograms/kg/injection, schedule: Q01DX009 (ip), vehicle: water): 10 of 10
survivor count (T/C endpoint: median survival time, dose: 125.0 micrograms/kg/injection, schedule: Q03HX008 (ip), vehicle: water): 0 of 10
survivor count (T/C endpoint: median survival time, dose: 125.0 micrograms/kg/injection, schedule: Q03HX016 (ip), vehicle: water): 0 of 10
T/C (T/C endpoint: median survival time, dose: 150.0 micrograms/kg/injection, schedule: Q04DX003 (ip), vehicle: water): 129 % of control
T/C (T/C endpoint: median survival time, dose: 200.0 micrograms/kg/injection, schedule: Q01DX001 (ip), vehicle: water): 125 % of control
survivor count (T/C endpoint: median survival time, dose: 200.0 micrograms/kg/injection, schedule: Q01DX009 (ip), vehicle: saline): 5 of 6
survivor count (T/C endpoint: median survival time, dose: 250.0 micrograms/kg/injection, schedule: Q01DX009 (ip), vehicle: water): 8 of 10
T/C (T/C endpoint: median survival time, dose: 300.0 micrograms/kg/injection, schedule: Q04DX003 (ip), vehicle: water): 140 % of control
T/C (T/C endpoint: median survival time, dose: 400.0 micrograms/kg/injection, schedule: Q01DX001 (ip), vehicle: water): 126 % of control
T/C (T/C endpoint: median survival time, dose: 800.0 micrograms/kg/injection, schedule: Q01DX001 (ip), vehicle: water): 140 % of control
survivor count (T/C endpoint: median survival time, dose: 1600.0 micrograms/kg/injection, schedule: Q01DX001 (ip), vehicle: water): 0 of 10
